Measurements published in PubChem BioAssay AID1347047 (National Center for Advancing Translational Sciences (NCATS), 2019).
In all, about 1,400 compounds went through this assay and about 10 (0.7%) were called active. About 2% were inconclusive and are not listed. Calls follow the shape of the dose curve; as a rule, active = well fitted inhibition curve with a large enough effect; inconclusive = small, poorly fitted or top-dose-only effect; inactive = flat fitted curve, though single readings scatter. The entries are a selection whose mix differs from that of the whole data set.

Sequences of proteins named here, by UniProt entry; tags and fusion partners are left off.
UniProt P08659, whole entry, looked up: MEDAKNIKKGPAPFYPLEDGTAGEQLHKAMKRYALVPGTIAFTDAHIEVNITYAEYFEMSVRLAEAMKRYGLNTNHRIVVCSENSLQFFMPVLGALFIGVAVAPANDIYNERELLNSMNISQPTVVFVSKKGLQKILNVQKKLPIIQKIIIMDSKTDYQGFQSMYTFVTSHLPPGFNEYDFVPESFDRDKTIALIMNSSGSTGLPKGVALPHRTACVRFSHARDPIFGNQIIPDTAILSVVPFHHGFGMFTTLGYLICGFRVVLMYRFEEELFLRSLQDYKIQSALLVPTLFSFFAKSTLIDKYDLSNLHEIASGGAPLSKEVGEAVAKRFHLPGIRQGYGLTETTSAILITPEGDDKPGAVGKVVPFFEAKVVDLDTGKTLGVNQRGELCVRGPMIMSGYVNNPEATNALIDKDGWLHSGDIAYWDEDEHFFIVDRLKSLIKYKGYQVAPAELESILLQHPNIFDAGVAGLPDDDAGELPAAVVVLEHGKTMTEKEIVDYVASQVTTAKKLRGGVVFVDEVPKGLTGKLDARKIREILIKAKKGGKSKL

molecular target: Luciferin 4-monooxygenase (Photinus pyralis) (UniProt P08659); assay: Natriuretic polypeptide receptor (hNpr1) antagonism - Confirmation firefly luciferase (FLuc) inhibition counterscreen; conditions: purified FLuc enzyme, luminescence, Km substrate; at 57.6 µM (top of the series) unless noted; also: 0% is about no effect
Excerpt: Firefly (Photinus pyralis) luciferase (FLuc) is one of the more frequently used transcriptional reporter genes, and it has also been developed as a cellular sensor for cyclic nucleotides. (Fan F & Wood KV, 2007; Fan F et al., 2008) However, a significant number of compounds that populate chemical libraries have been identified as FLuc ligands which can be mistaken for modulators of the intended targeted pathways, receptors or enzymes. (Auld, DS et al. 2008; Thorne, N et al. 2012) Therefore, the FLuc enzyme assay conducted at sensitive Km level substrate conditions is used to counter-screen for potential FLuc ligands. Auld DS, Thorne N, Nguyen DT & Inglese J A specific mechanism for nonspecific activation in reporter-gene assays. ACS Chem Biol. 2008, 3: 463-470. DOI: 10.1021/cb8000793 Fan F, Binkowski BF, Butler BL, Stecha PF, Lewis MK, Wood KV. Novel genetically encoded biosensors using firefly luciferase. ACS Chem Biol. 2008, 3: 346-351. DOI: 10.1021/cb8000414 Fan F and Wood KV. Bioluminescent assays for high-throughput screening. Assay Drug Dev Technol. 2007, 5: 127-136. […] Chemistry & Biology, 2012, 19: 1060-1072. DOI.org/10.1016/j.chembiol.2012.07.015
PROTOCOL TABLE (as described by Inglese J, Shamu CE and Guy RK. 2007) SEQUENCE No. (e.g., 1, 2, 3, etc.); PARAMETER (e.g., Cells, Incubation, Reagent, etc.); VALUE and DESCRIPTION. FLUC KM ENZYME COUNTERSCREEN (Thorne, N.T. et al. 2012) 1. Reagent. Add 3 uL of D-luciferin substrate buffer per well into Greiner 1536-well white/solid bottom high base, medium bind plates. 2. Compounds. Library compounds and PTC124 control added at 23nL per well, transferred by Pin Tool. 3. Incubation. Incubate plates at room temperature for […], protect from light. 4. Reagent. Add 1uL of P. pyralis luciferase (FLuc) per well of Greiner 1536-well plates. 5. Incubation. Incubate plates at room temperature for 10 min., protect from light. 6. Detector. FLuc luminescence measured using CCD-based camera (Viewlux). NOTES (numbers refer to Sequence numbers above) 1. Substrate buffer: 10 uM D-luciferin final concentration in 50 mM Tris-Acetate, pH 7.6, 10 mM Mg-Acetate, 10 uM ATP, 0.01% Tween-20, and 0.05% BSA buffer added at 3uL/well to 13 x Greiner 1536-well white/solid bottom high base, medium bind plates. 2. PTC124 stock solution prepared (10 mM in DMSO; Auld D.S. et al. 2010). Working dilution for dispense = 10 mM stock dilution (57.5 uM final concentration; 16-pt 1:3 titration in duplicate = final concentration range of 57.5 uM - 4 pM). 23nL of library compounds, PTC124 control or DMSO vehicle control transferred to the 13 substrate-containing Greiner white/solid bottom high base, medium bind plates in 11 interplate 1:3 titrations (see Yasgar, A. et al. 2008) with Pintool. 3. Substrate incubated for 30-50 min. at ambient temperature protected from light with metal lid. 4. Enzyme solution: 10 nM P. pyralis luciferase (FLuc) final concentration in 50 mM Tris-Acetate, pH 7.6 added at 1uL to 13 x Greiner 1536-well white/solid bottom high base, medium bind plates. 5. Substrate and enzyme incubated with test library compounds and controls for 10 min. at ambient temperature protected from light with metal lid. 6. Read final Luminescence on the ViewLux. [Exposure = 30 s.; Gain = High; Speed = Slow; and Binning = 2X.] REFERENCES: Auld DS, Lovell S, Thorne N, Lea WA, Maloney DJ, Shen M, Rai G, Battaile KP, Thomas CJ, Simeonov A, Hanzlik RP and Inglese J. Molecular basis for the high-affinity binding and stabilization of firefly luciferase by PTC124. […] Chemistry & Biology, 2012, 19: 1060-1072. doi.org/10.1016/j.chembiol.2012.07.015 Yasgar A, Shinn P, Jadhav A, Auld DS, Michael S, Zheng W, Austin CP, Inglese J and Simeonov A, Compound Management for Quantitative High-Throughput Screening. J. Assoc. Lab. Auto., 2008, 13: 79-89. doi: 10.1016/j.jala.2007.12.004

| Compound | activity change, negative = inhibition |
| --- | --- |
| COc1cc2c(cc1Oc1cccc(N(C)C)c1)NC(=O)C21CCN(Cc2ccccn2)CC1 | inactive: -7.03% |
| COc1cc2c(cc1Oc1cccc(N(C)C)c1)NC(=O)C21CCN(CCC(C)C)CC1 | inactive: 2.27% [at 86.2 µM] |
| COc1cc2c(cc1OCc1ccncc1)NC(=O)C21CCN(c2ncc(F)cn2)CC1 | inactive: -0.173% [at 86.2 µM] |
| COc1cc2c(cc1Oc1cccc(N(C)C)c1)NC(=O)C21CCN(c2cnccn2)CC1 | inactive: 1.45% |
| CCC(CC)c1cc([C@H]2CN3CC[C@H]2C[C@@H]3CNS(=O)(=O)c2ccccc2C#N)nc(-c2ccncc2)n1 | inactive: 0.712% |
| CCC(CC)c1cc([C@H]2CN3CC[C@H]2C[C@@H]3CNC(=O)NCc2ccccc2)nc(-c2ccncc2)n1 | inactive: 4.17% |
| CCC(CC)c1cc([C@H]2CN3CC[C@H]2C[C@@H]3CNS(=O)(=O)Cc2ccccc2)nc(-c2ccncc2)n1 | inactive: 0.736% |
